From paper PMC6028525 come the findings set out here.

Protein sequences, listed by entry. Tags and fused reporters are not part of them. Lines headed by an entry give the natural chain unless they say otherwise; changes in a name come on top.
UniProt Q9VVM7: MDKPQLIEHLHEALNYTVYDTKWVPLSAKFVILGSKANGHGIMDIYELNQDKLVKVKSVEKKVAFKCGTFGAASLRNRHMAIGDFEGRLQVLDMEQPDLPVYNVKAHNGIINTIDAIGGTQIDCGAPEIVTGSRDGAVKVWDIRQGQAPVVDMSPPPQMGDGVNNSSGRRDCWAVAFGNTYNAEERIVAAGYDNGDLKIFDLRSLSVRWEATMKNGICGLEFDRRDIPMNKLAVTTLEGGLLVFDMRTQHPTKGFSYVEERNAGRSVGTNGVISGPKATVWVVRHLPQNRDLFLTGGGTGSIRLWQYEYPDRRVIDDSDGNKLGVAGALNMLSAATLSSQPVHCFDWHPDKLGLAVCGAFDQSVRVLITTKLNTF
UniProt E1JJ04: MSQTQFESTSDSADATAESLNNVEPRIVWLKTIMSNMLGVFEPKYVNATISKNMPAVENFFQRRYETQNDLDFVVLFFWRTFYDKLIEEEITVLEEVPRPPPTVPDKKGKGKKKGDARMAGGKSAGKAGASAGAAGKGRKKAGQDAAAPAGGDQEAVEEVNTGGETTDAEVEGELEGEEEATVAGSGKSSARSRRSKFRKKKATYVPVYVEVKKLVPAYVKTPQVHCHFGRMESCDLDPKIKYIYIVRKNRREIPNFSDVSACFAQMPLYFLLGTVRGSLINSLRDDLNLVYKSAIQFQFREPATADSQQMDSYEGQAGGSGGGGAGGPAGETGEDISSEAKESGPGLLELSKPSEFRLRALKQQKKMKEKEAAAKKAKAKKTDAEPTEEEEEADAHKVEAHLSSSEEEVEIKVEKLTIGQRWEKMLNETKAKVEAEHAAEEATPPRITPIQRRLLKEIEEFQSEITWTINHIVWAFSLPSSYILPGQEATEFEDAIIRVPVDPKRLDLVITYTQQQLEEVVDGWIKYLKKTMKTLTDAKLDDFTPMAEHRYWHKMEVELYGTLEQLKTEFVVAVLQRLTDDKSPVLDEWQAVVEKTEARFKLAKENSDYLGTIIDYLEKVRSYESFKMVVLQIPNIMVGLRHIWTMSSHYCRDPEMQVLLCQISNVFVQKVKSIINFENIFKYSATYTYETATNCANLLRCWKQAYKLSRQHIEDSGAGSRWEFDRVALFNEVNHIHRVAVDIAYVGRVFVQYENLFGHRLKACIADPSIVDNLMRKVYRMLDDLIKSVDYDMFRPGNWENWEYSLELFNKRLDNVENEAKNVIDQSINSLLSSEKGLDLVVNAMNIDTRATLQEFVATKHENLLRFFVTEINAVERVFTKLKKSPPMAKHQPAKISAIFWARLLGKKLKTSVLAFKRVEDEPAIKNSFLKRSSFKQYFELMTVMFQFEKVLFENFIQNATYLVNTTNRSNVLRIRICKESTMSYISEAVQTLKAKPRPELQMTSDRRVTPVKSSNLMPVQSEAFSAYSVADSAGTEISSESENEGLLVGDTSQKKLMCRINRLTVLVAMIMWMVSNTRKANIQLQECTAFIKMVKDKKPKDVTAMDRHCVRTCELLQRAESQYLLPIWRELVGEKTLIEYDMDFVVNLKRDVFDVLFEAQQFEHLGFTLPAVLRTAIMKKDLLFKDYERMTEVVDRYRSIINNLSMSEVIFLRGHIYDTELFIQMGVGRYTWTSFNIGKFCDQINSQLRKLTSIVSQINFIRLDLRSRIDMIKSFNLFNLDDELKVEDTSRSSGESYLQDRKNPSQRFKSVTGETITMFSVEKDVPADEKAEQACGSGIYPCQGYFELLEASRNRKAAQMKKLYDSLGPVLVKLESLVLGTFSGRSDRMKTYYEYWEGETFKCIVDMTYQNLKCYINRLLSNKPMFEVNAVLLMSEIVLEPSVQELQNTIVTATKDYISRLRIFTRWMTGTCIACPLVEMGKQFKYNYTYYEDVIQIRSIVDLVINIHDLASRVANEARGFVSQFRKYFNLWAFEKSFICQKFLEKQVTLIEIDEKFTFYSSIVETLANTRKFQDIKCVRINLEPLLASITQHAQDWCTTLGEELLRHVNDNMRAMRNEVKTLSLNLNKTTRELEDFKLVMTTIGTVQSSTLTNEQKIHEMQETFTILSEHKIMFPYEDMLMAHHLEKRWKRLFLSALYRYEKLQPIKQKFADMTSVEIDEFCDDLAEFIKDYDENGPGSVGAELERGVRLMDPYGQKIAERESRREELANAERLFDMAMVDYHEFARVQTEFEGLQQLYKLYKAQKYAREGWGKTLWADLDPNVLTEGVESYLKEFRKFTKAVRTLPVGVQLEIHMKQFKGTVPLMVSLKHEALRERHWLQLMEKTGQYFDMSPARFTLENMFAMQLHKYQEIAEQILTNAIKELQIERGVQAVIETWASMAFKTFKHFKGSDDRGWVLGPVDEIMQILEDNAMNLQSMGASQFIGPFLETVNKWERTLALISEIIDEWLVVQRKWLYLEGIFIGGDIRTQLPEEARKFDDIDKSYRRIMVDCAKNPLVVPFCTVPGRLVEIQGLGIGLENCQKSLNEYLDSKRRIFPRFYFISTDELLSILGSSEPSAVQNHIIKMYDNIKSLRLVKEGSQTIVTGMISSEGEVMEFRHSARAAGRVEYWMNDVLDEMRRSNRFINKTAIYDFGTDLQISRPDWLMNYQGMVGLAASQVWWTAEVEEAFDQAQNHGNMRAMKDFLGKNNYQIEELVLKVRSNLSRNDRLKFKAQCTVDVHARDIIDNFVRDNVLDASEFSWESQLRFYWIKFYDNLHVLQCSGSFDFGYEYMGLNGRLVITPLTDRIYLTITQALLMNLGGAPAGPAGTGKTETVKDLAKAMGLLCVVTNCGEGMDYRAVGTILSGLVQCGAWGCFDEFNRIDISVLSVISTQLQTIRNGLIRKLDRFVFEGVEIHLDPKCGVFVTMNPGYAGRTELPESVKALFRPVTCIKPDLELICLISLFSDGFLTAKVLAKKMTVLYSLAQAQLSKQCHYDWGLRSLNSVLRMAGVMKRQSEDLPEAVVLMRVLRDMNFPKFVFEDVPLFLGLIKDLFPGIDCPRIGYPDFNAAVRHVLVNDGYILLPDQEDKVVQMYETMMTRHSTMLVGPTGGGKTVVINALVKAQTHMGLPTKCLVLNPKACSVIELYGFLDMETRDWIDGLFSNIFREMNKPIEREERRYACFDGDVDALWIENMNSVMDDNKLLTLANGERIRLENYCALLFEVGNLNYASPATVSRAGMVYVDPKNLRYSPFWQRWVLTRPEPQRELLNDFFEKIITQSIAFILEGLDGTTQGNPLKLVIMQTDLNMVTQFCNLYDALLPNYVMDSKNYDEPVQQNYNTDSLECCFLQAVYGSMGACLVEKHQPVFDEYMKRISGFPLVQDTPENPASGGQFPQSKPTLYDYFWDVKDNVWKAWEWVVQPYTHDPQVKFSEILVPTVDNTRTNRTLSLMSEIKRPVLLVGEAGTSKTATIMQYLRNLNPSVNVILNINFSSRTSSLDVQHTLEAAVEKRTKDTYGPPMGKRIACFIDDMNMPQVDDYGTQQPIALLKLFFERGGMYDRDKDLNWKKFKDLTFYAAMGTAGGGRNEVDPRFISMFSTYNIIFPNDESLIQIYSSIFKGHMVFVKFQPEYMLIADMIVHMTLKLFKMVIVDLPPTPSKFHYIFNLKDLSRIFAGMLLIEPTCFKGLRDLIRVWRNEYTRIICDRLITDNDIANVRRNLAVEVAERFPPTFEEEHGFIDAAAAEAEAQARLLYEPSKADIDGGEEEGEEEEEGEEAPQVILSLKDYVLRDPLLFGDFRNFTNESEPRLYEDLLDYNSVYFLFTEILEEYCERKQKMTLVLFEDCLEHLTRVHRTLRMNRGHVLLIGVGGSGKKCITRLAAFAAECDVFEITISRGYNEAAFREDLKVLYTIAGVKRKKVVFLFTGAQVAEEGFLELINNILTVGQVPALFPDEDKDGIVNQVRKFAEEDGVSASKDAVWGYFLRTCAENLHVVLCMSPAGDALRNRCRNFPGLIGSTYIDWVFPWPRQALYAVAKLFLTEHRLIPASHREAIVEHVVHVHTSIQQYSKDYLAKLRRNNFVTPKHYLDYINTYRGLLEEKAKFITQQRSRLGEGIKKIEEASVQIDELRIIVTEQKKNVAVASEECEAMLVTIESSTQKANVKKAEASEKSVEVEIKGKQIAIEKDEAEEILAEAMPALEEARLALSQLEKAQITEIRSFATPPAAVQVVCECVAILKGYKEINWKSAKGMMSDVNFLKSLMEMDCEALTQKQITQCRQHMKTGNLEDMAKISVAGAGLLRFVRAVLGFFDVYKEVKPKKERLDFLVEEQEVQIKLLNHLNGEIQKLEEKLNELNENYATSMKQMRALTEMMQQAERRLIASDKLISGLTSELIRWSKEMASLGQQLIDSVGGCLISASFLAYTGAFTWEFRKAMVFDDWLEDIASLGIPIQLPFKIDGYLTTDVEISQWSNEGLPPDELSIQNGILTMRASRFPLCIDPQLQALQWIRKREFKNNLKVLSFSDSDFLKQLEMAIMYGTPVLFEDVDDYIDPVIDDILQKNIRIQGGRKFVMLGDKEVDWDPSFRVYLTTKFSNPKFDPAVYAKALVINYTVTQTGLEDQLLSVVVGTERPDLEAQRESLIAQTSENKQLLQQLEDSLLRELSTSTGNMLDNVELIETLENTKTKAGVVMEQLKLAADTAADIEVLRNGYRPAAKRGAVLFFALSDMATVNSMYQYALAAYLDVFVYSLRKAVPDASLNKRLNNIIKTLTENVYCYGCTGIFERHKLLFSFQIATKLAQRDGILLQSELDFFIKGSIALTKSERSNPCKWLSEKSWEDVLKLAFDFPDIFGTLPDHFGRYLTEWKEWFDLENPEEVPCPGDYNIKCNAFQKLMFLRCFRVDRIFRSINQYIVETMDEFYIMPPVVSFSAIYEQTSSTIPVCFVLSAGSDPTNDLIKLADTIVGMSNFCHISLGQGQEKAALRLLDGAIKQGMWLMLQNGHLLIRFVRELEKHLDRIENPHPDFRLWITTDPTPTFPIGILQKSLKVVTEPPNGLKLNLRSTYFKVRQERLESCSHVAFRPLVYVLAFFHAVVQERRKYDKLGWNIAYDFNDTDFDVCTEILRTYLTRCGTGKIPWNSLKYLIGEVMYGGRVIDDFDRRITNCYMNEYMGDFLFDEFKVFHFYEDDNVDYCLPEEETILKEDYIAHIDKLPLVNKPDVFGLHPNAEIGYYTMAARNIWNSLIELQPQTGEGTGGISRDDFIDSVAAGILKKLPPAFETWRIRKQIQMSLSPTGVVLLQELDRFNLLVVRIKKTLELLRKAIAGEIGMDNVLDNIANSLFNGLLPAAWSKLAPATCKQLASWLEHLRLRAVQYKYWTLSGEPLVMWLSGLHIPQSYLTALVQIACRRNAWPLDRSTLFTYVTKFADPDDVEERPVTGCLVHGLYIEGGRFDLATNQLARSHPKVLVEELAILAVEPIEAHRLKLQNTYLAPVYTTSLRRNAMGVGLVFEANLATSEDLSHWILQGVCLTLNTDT

Assay [1] deals with T1, Spag1-mVenus fusion protein (Drosophila melanogaster) (UniProt Q9VBA1).
T1 sequence: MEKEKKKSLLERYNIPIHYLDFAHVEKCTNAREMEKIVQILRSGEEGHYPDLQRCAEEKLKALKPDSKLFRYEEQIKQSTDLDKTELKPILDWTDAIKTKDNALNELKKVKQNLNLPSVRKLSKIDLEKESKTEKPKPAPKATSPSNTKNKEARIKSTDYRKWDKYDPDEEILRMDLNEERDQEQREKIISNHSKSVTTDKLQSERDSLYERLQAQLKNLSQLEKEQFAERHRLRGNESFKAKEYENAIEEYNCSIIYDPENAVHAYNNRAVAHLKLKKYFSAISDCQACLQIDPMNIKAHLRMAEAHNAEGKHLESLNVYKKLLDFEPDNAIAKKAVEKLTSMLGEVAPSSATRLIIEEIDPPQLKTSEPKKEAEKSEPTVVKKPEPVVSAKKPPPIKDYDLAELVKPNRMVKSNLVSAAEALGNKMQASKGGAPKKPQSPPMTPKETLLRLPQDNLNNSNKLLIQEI
Put plainly: affinity purification with mass spectrometry; GFP-Trap_A beads on lysates of adult testes of Wdr92-mVenus or Spag1-mVenus males, 3 h at 4°C; lysis buffer 50 mM Tris-HCl pH 7.5, 100 mM NaCl, 10% glycerol, 5 mM EDTA, 0.15% Triton X-100, 0.5% sodium deoxycholate; control Gap43-mVenus testes; on-bead digest, label-free quantification.

Assay [2] deals with Wdr92-mVenus fusion protein (Drosophila melanogaster) (UniProt Q9VVM7). The description is as above.

Results are given in words; binding and its absence hold for the method and conditions named. Binding seen in cells or lysates may run through a third protein. Here binding means that the protein was enriched with, or labelled near, the bait; the list need not be complete. For part of these data: Tags and fused reporters may be left off the sequences shown.

Turning to Dhc98D (from UniProt E1JJ04 1-5073), the binding entry in assay [1] and in assay [2] was “binds” each time.
As to Wdr92, the binding entry in assay [1] is recorded as “binds”.
